Measured values published in PubChem BioAssay AID588497 (NMMLSC, 2011).
Among all 360,000 compounds or so, about 780 (0.22%) were called active. The shares of active, inactive and inconclusive entries below differ from those in the screen. Rule as the data show it: active = inhibition above about 35% (passing the limit was not always enough); inconclusive = no clear call, values can overlap the other calls.

These compounds were tested on Botulinum neurotoxin type F light chain protease (Clostridium botulinum) (assay: BoNT/F light chain protease inhibitors, primary screen, biochemical, flow cytometry, MLPCN library (AID 588497; also: plate controls were buffer without enzyme for full effect and enzyme alone for no effect)). Conditions: Multiplex microsphere protease cleavage assay, at 10 µM, hits give high values.

Row | SMILES | inhibition
1 | NS(=O)(=O)c1ccc(CCNS(=O)(=O)Cc2ccc(Cl)cc2)cc1 | inactive: 15.9%
2 | Cc1c(NC(=O)c2ccccc2N(C)S(=O)(=O)c2ccccc2)c(=O)n(-c2ccccc2)n1C | active: 48.5%
3 | CC1Cc2[nH]c(=S)[nH]c(=O)c2C(c2ccc(F)cc2)O1 (stereo not drawn) | inactive: -1.9%
4 | CCNC(=O)CN(c1ccc(CC)cc1)S(C)(=O)=O | inactive: -0.3%
5 | NS(=O)(=O)c1cc([N+](=O)[O-])ccc1NCc1cccnc1 | active: 39.3%
6 | Cc1noc(C)c1-c1nc(CSc2ccccc2)no1 | inconclusive: 2.3%
7 | O=C(CCc1ccccc1)NCCCN1CCOCC1 | inactive: 8.2%
8 | Cc1ccccc1OCCC(=O)OCC(=O)NC1CCCC1 | inactive: -3.6%
9 | Brc1cccc(-c2nnc3sc(CN4CCC5(CC4)OCCO5)cn23)c1 | inactive: -3.2%
10 | CC1CCCN(CCCOc2ccccc2-c2ccccc2)C1 (stereo not drawn) | inactive: -2.9%
11 | Nc1cc(=O)n(Cc2ccccc2)c(=O)n1-c1ccc(Cl)cc1 | inconclusive: -97.2%
12 | CC(=O)Nc1ccc(NS(=O)(=O)c2cc(-c3n[nH]c(=O)c4ccccc34)ccc2C)cc1 | active: 41.1%
13 | CCOc1ccccc1NC(=O)CN(c1cc(C)cc(C)c1)S(=O)(=O)c1c(C)noc1C | inactive: -2%
14 | CN(C)C(=O)CCC(=O)N1CCCC(N2CCN(c3cccc(C(F)(F)F)c3)CC2)C1 (stereo not drawn) | inconclusive: 27.6%
15 | COc1cc(C(=O)NCCOc2cccc(C)c2)c(Br)c(OC)c1OC | inconclusive: -21.7%
16 | CC1(C)C(CC2OCC(CN3CCCCC3)O2)[C@H]2CC[C@@H]1C2 (stereo partly drawn) | inconclusive: 8.7%
17 | COc1ccc(C(=O)NC2CC(C)(C)Cc3c2cnn3-c2ccccc2C)o1 (stereo not drawn) | inconclusive: 3.9%
18 | Cc1cccc(C)c1OCC(=O)Nc1cccc(S(=O)(=O)N2CCCCCC2)c1 | inactive: -4.8%
19 | CCOc1cc(C2C(C(=O)OC)=CN(Cc3ccc(Cl)cc3)C=C2C(=O)OC)ccc1O | active: 48%
20 | CCCCN(C(C)=O)C1CC(=O)N(c2ccc(OCCC)cc2)C1=O (stereo not drawn) | inconclusive: 4.7%
21 | Fc1cccc(/C=N/Nc2nccnc2Cl)c1 | inconclusive: 12.6%
22 | O=C(Cc1ccccc1)Nc1ccc2[nH]ncc2c1 | inconclusive: -14.3%
23 | CCOC(=O)c1ccc(N=Cc2c(O)n(-c3ccc(OC)cc3)c(=S)[nH]c2=O)cc1 | inactive: -2%
24 | O=C(c1ccccc1)c1coc2c1C(=O)c1ccccc1C2=O | inactive: -3.8%

Row | SMILES | inhibition
25 | CS(=O)(=O)c1nc2ccccc2n1Cc1ccccc1 | inactive: 0.5%
26 | Cc1onc(-c2ccccc2)c1C(=O)/C=C/N(C)C | inconclusive: -62.6%
27 | CCCCNC(=O)c1ccc2c(OCC)n(CCCC)nc2c1 | inactive: 5.3%
28 | COC(=O)c1ccc(COc2ccc(NC(C)=O)cc2)o1 | inconclusive: 96.8%
29 | NNC(=S)Nc1c(F)cc(F)cc1Br | inconclusive: 11.5%
30 | C/C(=N\Nc1ccccn1)c1ccc(Br)s1 | inconclusive: 31.2%
31 | CCN1CCC(NCCc2ccc(F)cc2)CC1 | inconclusive: 17.6%
32 | Cc1ccc(N=C2C(=O)Nc3ccc(C)c(Br)c32)cc1 | inconclusive: 17.3%
33 | O=C(Nc1ccccc1Cl)c1csc(-c2cccnc2)n1 | inconclusive: 26.9%
34 | C=CCOc1ccc(C2C(C(=O)c3cccs3)=C(O)C(=O)N2c2nnc(C)s2)cc1 (stereo not drawn) | active: 170%
35 | O=C(Nc1ccc(O)cc1)c1ccccc1OCc1ccccc1 | inconclusive: -28%
36 | CCc1ccc(NC(=S)NC(=O)c2c(-c3ccccc3Cl)noc2C)cc1 | inconclusive: 59.9%
37 | Cc1cc(/C=C2\C(=O)NC(=O)N(c3cccc(F)c3)C2=O)c(C)n1-c1ccc(C(=O)O)c(Cl)c1 | inconclusive: 21.6%
38 | N#C/C(=N\Nc1cccc(C(F)(F)F)c1)C(=O)c1csc(-c2cccnc2)n1 | inconclusive: -68.9%
39 | O=C(COC(=O)c1c(Cl)ccc(Cl)c1Cl)NC(=O)NCc1ccccc1 | inactive: -4.9%
40 | CCCCNC(=O)C1(C)CCN1C(=O)c1cc2ccccc2s1 (stereo not drawn) | inactive: 1.2%
41 | CCCC(=O)N(C1CC(C)C(C#N)(C#N)C1(C#N)C#N)N(C)C (stereo not drawn) | inconclusive: 34.9%
42 | Cc1cc(C)nc(SCc2cnc(C)nc2N)n1 | inactive: -4.9%
43 | COc1ccc2nc(SCC(=O)Nc3cc(C)on3)c(C#N)cc2c1 | inactive: 4.5%
44 | CCNC(=O)NC(=O)C(C)OC(=O)[C@H](C)NS(=O)(=O)c1c(C)c(C)cc(C)c1C (stereo partly drawn) | inactive: 4%
45 | COc1cc(C(=O)NCC2(N(C)C)CCCCC2)ccc1OCc1ccccc1 | inactive: 9.9%
46 | CCOCCCNC(=O)Cn1cnc2c(cnn2-c2ccc(F)cc2)c1=O | inconclusive: 8.5%
47 | Cn1c2ccccc2c2ncn(Cc3ccc(F)cc3)c(=O)c21 | inconclusive: -24.2%
48 | CN1CCN(c2oc(Cc3cccc4ccccc34)nc2C#N)CC1 | inconclusive: 67.3%

Sorted by molecular weight (ascending): some entries from above.
Row | SMILES | inhibition
31 | CCN1CCC(NCCc2ccc(F)cc2)CC1 | inconclusive: 17.6%
27 | CCCCNC(=O)c1ccc2c(OCC)n(CCCC)nc2c1 | inactive: 5.3%
39 | O=C(COC(=O)c1c(Cl)ccc(Cl)c1Cl)NC(=O)NCc1ccccc1 | inactive: -4.9%

Carrying on.

Row | SMILES | inhibition
49 | O=C(Nc1ccc(C(=O)c2ccc(C(=O)O)c(C(=O)O)c2)cc1)c1ccccc1 | inconclusive: 0.1%
50 | Cc1ccc(C(C)NC(=O)c2c(C)noc2C)cc1C (stereo not drawn) | inactive: -1.9%
51 | CCn1c(=O)n(CC)c2cc(S(N)(=O)=O)c(C)cc21 | active: 44%
52 | O=C(NC1CCSC1=O)C1CC(=O)N(c2ccc(F)cc2)C1 (stereo not drawn) | inconclusive: 5.8%
53 | COC(=O)CC1=C(C(=O)OC)[C@@H](c2ccccc2[N+](=O)[O-])C(C#N)=C(N)O1 | inconclusive: -81%
54 | COc1cccc(OC)c1C(=O)Nc1sc2c(c1C#N)CCC2 | inconclusive: 7.6%
55 | Fc1ccc(NC2=NCCS2)cc1Cl | inactive: -14.7%
56 | S=C(NC1CCCCC1)N1CCc2[nH]c3ccccc3c2C1 | inconclusive: -129%
57 | Cc1ccc(SCc2nc3ncccn3c2Br)cc1 | inconclusive: 6.3%
58 | O=C(CN1C(=O)NC2(CCCC2)C1=O)Oc1ccc2ccc(=O)oc2c1 | inactive: -50.7%
59 | Cc1cc(OCC(=O)NN2C(=O)c3ccccc3C2=O)ccc1Cl | inconclusive: 23.6%
60 | COc1cccc(/C=N/NC(=O)c2oc3nc(-c4ccccc4)cc(-c4ccco4)c3c2N)c1 | inconclusive: 2.2%
61 | N=c1ccn(Cc2ccc([N+](=O)[O-])cc2)cc1 | inconclusive: -31.3%
62 | N#Cc1ccccc1NS(=O)(=O)c1cc2c3c(c1)CCC(=O)N3CCC2 | inconclusive: -9.9%
63 | Nc1nc(NCCN2CCOCC2)nc(NCc2ccccc2)c1[N+](=O)[O-] | inconclusive: -23.1%
64 | COc1ccc(-n2c(NNC(C)=O)nc3sc4c(c3c2=O)CCCC4)cc1 | inconclusive: 28.5%
65 | CCc1ccc(C(=O)Nc2cccnc2Oc2ccc(Cl)cc2)cc1 | inconclusive: -57.5%
66 | COc1ccc(CCN2C(=O)C(C)=C(C)C2=O)cc1OC | inconclusive: -38.9%
67 | O=C(CN1C(=O)c2ccccc2C1=O)NCCOc1ccccc1 | inconclusive: -51.1%
68 | COc1ccc(CCN(C)C2CCCN(C(=O)CCSC)C2)cc1OC (stereo not drawn) | inconclusive: -10.5%
69 | COc1ccc2c(c1)C1C=CCC1C(c1cc3c(cc1Br)OCO3)N2 (stereo not drawn) | inconclusive: -15%
70 | CCOC(=O)COc1c(-c2ccc(OC)cc2)oc2ccccc2c1=O | inconclusive: -18.3%
71 | CC1CCCCN1S(=O)(=O)c1ccc([N+](=O)[O-])cc1 (stereo not drawn) | inconclusive: -12.2%
72 | COc1ccc(-c2cc3nc(C)c(CCC(=O)NCc4ccco4)c(C)n3n2)c(OC)c1 | inactive: -0.4%

Row | SMILES | inhibition
73 | O=C(Nc1ccccc1N1CCCCC1)c1ccc(F)c(S(=O)(=O)N2CCOCC2)c1 | inconclusive: 9.8%
74 | CCN(CC(=O)NCc1cccs1)CC(=O)Nc1ccccc1C | inconclusive: 5.2%
75 | Cn1c(=O)c2c(nc(SCCN3CCOCC3)n2C)n(C)c1=O | inconclusive: -4.7%
76 | O=C(NC1CCC1)C1CCC(=O)N(Cc2ccc(Cl)cc2)C1 (stereo not drawn) | inactive: -0.3%
77 | COc1ncnc2c1ncn2CC1COC(C)(C)O1 (stereo not drawn) | inconclusive: -1.1%
78 | CC(C)Cc1nc2oc3c(NCC(C)O)ncnc3c2c2c1CCCC2 (stereo not drawn) | inconclusive: 18%
79 | O=C(COC(=O)CC1CCCC1)Nc1ccc(Cl)cc1 | inconclusive: 14.5%
80 | O=C1N=c2ccccc2=C1c1sc(Nc2cccc(O)c2)nc1O | inconclusive: -13.1%
81 | CCOC(=O)C1(Cc2cccc(Cl)c2)CCCN(C(=O)CCSC)C1 (stereo not drawn) | inconclusive: 19.6%
82 | Nc1nc(NCc2ccco2)nc(N2CCOCC2)c1[N+](=O)[O-] | inconclusive: -29.7%
83 | CCCN(CCC)C(=O)c1cc2c(=O)n3cccc(C)c3nc2s1 | inactive: -7.2%
84 | CCCCNC(=O)c1cc2cccc([N+](=O)[O-])c2[nH]1 | inconclusive: -23%
85 | Cc1cccc2c1ncc1c(=O)n(-c3ccccc3)[nH]c12 | inconclusive: -3.3%
86 | Cc1cc(Nc2ccc(Cl)cc2)n2ncnc2n1 | inconclusive: -7.3%
87 | COc1ccccc1C(=O)NCCSCc1c(F)cccc1Cl | inconclusive: -21.6%
88 | CCOC(=O)C(CC)(CC)C(=O)/C=C/c1ccc(OC)cc1 | inconclusive: 120%
89 | Nc1ccc(S(=O)(=O)Nc2nc(-c3ccccc3)cc(-c3ccccc3O)n2)cc1 | inactive: -7.9%
90 | Cc1ncc([N+](=O)[O-])n1CC(C)O (stereo not drawn) | inactive: -7.9%
91 | CC(=O)C1=C(Nc2ccccc2)CC(C)(O)C(C(C)=O)C1c1ccccc1 (stereo not drawn) | inconclusive: 58.2%
92 | Cc1cc(C)c(S(=O)(=O)Nc2ncccc2C)c(C)c1 | inconclusive: 25.9%
93 | COCOCCn1cc(CN2CCS(=O)(=O)N(Cc3ccc(-c4ccc(Cl)nc4)cc3)C(C(C)C)C2=O)nn1 (stereo not drawn) | inactive: 3.8%
